In patent US12612465B2, “Formulations comprising PCSK9 specific monoclonal antibodies” (Amgen Inc., priority 2012, dated 2026):
Some of these results come from one statement about several compounds together.

Protein sequences, listed by entry. Tags and fused reporters are not part of them. Residues count along the entry.
UniProt Q80W65, 156-694: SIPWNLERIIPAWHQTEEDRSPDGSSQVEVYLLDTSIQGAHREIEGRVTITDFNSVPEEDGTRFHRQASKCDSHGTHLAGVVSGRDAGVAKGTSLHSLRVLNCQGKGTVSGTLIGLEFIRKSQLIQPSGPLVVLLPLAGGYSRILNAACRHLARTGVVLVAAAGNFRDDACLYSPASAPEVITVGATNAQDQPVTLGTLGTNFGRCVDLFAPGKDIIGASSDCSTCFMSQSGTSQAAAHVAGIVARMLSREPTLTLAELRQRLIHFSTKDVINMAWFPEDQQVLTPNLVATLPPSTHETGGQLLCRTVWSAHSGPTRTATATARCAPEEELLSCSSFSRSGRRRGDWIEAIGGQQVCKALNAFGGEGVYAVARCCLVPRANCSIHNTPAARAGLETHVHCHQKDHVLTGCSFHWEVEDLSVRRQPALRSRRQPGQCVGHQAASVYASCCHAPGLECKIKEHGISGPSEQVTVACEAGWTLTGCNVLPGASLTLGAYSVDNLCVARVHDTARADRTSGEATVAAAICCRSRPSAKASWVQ

Legend:
[1] = biological target: T1, His-tagged mouse PCSK9 (Mus musculus, UniProt Q80W65); experiment: KinExA affinity analysis; assay type: binding
T1 construct: 8xHis (C)

[2] = biological target: T2, PCSK9 protein (Mus musculus, UniProt Q80W65); experiment: Serum cholesterol and HDL in WT mice, 13 day study; assay type: in vivo; details: 10 mg/kg
T2 construct: endogenous in cells; host or cells: WT C57BL/6 mice, in vivo
From the text: Male WT mice (C57BL/6 strain, aged 9-10 weeks, 17-27 g) obtained from Jackson Laboratory (Bar Harbor, Me.) were fed a normal chow (Harland-Teklad, Diet 2918) through out the duration of the experiment. […] Naïve mice were also set aside as naïve control group.
Animals were sacrificed and livers were extracted and prepared as in Example 13.

B1: 16F12: anti-PCSK9 ABP, light/heavy variable region SEQ ID NO 35/79 (antibody, listed as Homo sapiens, V domains shown)
VH: QVHLVESGGGVVQPGRSLRLSCAASGFTFNSFGMHWVRQAPGKGLEWVALIWSDGSDEYYADSVKGRFTISRDNSKNTLYLQMNSLRAEDTAVYYCARAIAALYYYYGMDVWGQGTTVTVSS
VL: QSVLTQPPSVSAAPGQKVTISCSGSSSNIGNNFVSWYQQLPGTAPKLLIYDYNKRPSGIPDRFSGSKSGTSATLGITGLQTGDEADYYCGTWDSSLSAYVFGTGTRVTVL
lower affinity to mouse PCSK9 than to human and cyno PCSK9 [1]: 10-250 fold | duration of benefit after a single dose [2]: ≥ 10 days
